Consider two substances from paper PMC8187512.

By UniProt entry, the sequences of proteins in these tests, tags left out.
UniProt Q9R210: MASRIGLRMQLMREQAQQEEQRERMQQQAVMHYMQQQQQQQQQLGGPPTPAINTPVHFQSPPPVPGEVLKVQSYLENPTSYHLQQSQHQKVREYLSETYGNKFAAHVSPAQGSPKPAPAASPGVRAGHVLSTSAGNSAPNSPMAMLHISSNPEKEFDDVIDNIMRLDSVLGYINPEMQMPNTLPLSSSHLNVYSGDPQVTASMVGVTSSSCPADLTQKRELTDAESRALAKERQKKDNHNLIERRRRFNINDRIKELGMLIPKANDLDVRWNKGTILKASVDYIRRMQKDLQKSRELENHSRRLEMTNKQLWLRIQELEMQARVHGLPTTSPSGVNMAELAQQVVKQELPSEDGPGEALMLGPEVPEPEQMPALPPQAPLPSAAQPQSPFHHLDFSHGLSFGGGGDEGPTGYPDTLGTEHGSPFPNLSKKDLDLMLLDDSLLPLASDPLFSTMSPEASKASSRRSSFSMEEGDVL
UniProt Q9QZL0: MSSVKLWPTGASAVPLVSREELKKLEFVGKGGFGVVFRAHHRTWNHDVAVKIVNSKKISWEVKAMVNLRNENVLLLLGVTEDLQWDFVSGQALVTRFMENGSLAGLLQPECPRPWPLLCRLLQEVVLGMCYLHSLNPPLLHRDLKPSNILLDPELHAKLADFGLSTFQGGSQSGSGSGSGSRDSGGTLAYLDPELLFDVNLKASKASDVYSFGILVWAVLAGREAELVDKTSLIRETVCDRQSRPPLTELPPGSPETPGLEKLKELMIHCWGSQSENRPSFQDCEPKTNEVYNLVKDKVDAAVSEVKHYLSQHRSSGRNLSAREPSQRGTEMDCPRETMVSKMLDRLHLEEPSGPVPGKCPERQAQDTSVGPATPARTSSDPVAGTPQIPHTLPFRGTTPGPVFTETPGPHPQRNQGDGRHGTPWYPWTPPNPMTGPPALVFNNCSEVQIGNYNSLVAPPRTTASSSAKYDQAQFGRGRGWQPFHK

These are yes or no findings as the source states them, for the method shown. Binding seen in cells or lysates may run through a third protein. Some results given as binding are weak or reduced against the parent protein; the word gives no strength.

This assay deals with Transcription factor EB (mouse (endogenous in mouse primary renal PTECs)) (UniProt Q9R210). The assay is described as follows: co-IP; lysates of cultured mouse PTECs treated with LPS or DMSO (con) for 12 h; Pierce IP Lysis Buffer; anti-RIP3 or anti-TFEB antibody or control IgG on Dynabeads Protein G, 4 °C overnight; immunoblot for TFEB, RIP3 or p-RIP3. In general terms: In western blotting, separated proteins are transferred to a membrane and probed.

In the case of “Receptor interacting protein kinase 3 (from UniProt Q9QZL0 1-486)”, the binding entry was “binds”. Turning to “phosphorylated RIP3 (from UniProt Q9QZL0 1-486)”, the binding result was “binds”.
